Measured values as given in PMC8133684, “The URL1–ROC5–TPL2 transcriptional repressor complex represses the ACL1 gene to modulate leaf rolling in rice”.
Results are given in words; binding and its absence hold for the method and conditions named. For some of these results: In cells and extracts the contact can be indirect. Some entries that bind do so weakly or less than the wild type. Tags and fused reporters may be left off the sequences shown.

T1: URL1 (UPWARD ROLLED LEAF1), HD-ZIP IV family member RICE OUTERMOST CELL-SPECIFIC 8 (ROC8), yeast two-hybrid fusion (rice (Oryza sativa L.)) (UniProt Q69T58)
T1 sequence: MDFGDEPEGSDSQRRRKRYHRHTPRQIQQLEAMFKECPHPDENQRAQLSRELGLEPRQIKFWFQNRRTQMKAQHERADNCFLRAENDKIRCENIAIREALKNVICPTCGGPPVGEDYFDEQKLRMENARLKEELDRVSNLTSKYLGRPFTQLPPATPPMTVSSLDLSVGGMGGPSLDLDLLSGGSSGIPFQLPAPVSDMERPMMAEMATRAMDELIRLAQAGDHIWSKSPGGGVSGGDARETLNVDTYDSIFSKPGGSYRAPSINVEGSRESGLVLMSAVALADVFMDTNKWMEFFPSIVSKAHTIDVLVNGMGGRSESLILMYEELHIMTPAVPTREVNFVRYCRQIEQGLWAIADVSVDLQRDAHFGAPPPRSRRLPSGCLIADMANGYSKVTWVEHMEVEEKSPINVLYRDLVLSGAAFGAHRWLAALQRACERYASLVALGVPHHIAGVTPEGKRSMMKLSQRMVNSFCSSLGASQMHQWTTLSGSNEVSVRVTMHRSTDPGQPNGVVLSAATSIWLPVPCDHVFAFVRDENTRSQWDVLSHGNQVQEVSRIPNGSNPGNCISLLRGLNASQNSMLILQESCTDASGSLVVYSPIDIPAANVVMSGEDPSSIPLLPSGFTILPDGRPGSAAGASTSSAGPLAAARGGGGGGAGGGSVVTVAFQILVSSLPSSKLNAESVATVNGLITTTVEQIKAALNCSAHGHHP

T2: ROC5 fused to the N- or C-terminal part of firefly luciferase (rice (Oryza sativa L.)) (UniProt Q6EPF0)
T2 sequence: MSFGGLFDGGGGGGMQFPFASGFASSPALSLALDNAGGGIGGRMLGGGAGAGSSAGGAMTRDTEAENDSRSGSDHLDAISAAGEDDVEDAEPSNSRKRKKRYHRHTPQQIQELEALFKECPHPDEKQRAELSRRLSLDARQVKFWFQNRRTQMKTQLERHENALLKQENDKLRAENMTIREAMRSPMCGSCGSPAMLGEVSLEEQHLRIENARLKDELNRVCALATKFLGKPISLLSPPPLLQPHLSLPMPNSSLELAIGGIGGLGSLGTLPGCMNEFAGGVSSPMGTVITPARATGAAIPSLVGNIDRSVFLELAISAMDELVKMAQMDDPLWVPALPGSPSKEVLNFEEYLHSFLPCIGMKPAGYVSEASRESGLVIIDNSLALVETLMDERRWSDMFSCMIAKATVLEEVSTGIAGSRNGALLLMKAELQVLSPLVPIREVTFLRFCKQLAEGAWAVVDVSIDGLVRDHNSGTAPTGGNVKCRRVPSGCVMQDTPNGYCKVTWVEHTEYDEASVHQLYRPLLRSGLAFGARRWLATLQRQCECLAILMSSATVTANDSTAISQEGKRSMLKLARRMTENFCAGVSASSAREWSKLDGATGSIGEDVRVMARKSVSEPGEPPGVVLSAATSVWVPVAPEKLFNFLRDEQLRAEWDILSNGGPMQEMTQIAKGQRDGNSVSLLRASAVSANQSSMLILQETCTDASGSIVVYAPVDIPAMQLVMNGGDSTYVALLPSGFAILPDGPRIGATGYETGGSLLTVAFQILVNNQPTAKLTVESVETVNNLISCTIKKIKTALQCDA

T3: URL1 (ROC8) fused to the N- or C-terminal part of firefly luciferase (rice (Oryza sativa L.)) (UniProt Q69T58)
T3 sequence: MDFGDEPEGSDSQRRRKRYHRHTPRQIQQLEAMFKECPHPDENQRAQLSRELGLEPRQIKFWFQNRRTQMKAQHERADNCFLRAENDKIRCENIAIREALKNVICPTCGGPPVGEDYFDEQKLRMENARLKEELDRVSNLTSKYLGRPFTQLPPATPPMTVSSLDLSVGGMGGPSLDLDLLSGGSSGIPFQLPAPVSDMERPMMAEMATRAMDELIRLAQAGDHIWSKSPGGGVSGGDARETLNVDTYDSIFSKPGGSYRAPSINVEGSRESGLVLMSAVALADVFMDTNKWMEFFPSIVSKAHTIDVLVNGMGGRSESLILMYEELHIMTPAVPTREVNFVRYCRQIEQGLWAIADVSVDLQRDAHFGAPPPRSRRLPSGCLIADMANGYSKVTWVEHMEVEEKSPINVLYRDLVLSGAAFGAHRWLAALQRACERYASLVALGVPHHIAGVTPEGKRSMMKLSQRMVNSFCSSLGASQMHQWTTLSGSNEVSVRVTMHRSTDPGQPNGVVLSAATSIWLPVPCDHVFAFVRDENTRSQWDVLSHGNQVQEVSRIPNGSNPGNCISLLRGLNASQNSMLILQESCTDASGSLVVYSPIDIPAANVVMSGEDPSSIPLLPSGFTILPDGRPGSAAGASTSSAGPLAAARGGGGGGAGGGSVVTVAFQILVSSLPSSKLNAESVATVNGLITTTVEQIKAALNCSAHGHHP


What was measured:
[1] = target: T1, URL1 (UPWARD ROLLED LEAF1), HD-ZIP IV family member RICE OUTERMOST CELL-SPECIFIC 8 (ROC8), yeast two-hybrid fusion (rice (Oryza sativa L.)); test: two-hybrid; full-length URL1 and ROC5 in pGBKT7 or pGADT7; yeast strain AH109; growth on SD-Leu-Trp-His with 15 mM 3-AT and liquid beta-galactosidase activity assay
[2] = target: ROC5 (RICE OUTERMOST CELL-SPECIFIC 5), HD-ZIP IV family member, yeast two-hybrid fusion (rice (Oryza sativa L.)) (UniProt Q6EPF0); test: as above
[3] = target: T2, ROC5 fused to the N- or C-terminal part of firefly luciferase (rice (Oryza sativa L.)); test: split reporter; firefly luciferase complementation imaging (LCI); NLUC and CLUC fusions co-expressed by Agrobacterium infiltration in the same N. benthamiana leaf; luciferin sprayed, LUC signal imaged and quantified
[4] = target: T3, URL1 (ROC8) fused to the N- or C-terminal part of firefly luciferase (rice (Oryza sativa L.)); test: as above

| binding [1] | binding [2] | binding [3] | binding [4] | Binder |
| --- | --- | --- | --- | --- |
| binds | binds |  |  | ROC5 (RICE OUTERMOST CELL-SPECIFIC 5), HD-ZIP IV family member, yeast two-hybrid fusion (protein, UniProt Q6EPF0 1-804) MSFGGLFDGGGGGGMQFPFASGFASSPALSLALDNAGGGIGGRMLGGGAGAGSSAGGAMTRDTEAENDSRSGSDHLDAISAAGEDDVEDAEPSNSRKRKKRYHRHTPQQIQELEALFKECPHPDEKQRAELSRRLSLDARQVKFWFQNRRTQMKTQLERHENALLKQENDKLRAENMTIREAMRSPMCGSCGSPAMLGEVSLEEQHLRIENARLKDELNRVCALATKFLGKPISLLSPPPLLQPHLSLPMPNSSLELAIGGIGGLGSLGTLPGCMNEFAGGVSSPMGTVITPARATGAAIPSLVGNIDRSVFLELAISAMDELVKMAQMDDPLWVPALPGSPSKEVLNFEEYLHSFLPCIGMKPAGYVSEASRESGLVIIDNSLALVETLMDERRWSDMFSCMIAKATVLEEVSTGIAGSRNGALLLMKAELQVLSPLVPIREVTFLRFCKQLAEGAWAVVDVSIDGLVRDHNSGTAPTGGNVKCRRVPSGCVMQDTPNGYCKVTWVEHTEYDEASVHQLYRPLLRSGLAFGARRWLATLQRQCECLAILMSSATVTANDSTAISQEGKRSMLKLARRMTENFCAGVSASSAREWSKLDGATGSIGEDVRVMARKSVSEPGEPPGVVLSAATSVWVPVAPEKLFNFLRDEQLRAEWDILSNGGPMQEMTQIAKGQRDGNSVSLLRASAVSANQSSMLILQETCTDASGSIVVYAPVDIPAMQLVMNGGDSTYVALLPSGFAILPDGPRIGATGYETGGSLLTVAFQILVNNQPTAKLTVESVETVNNLISCTIKKIKTALQCDA |
|  |  | binds | binds | ROC5 fused to the N- or C-terminal part of firefly luciferase (protein, UniProt Q6EPF0 1-804) MSFGGLFDGGGGGGMQFPFASGFASSPALSLALDNAGGGIGGRMLGGGAGAGSSAGGAMTRDTEAENDSRSGSDHLDAISAAGEDDVEDAEPSNSRKRKKRYHRHTPQQIQELEALFKECPHPDEKQRAELSRRLSLDARQVKFWFQNRRTQMKTQLERHENALLKQENDKLRAENMTIREAMRSPMCGSCGSPAMLGEVSLEEQHLRIENARLKDELNRVCALATKFLGKPISLLSPPPLLQPHLSLPMPNSSLELAIGGIGGLGSLGTLPGCMNEFAGGVSSPMGTVITPARATGAAIPSLVGNIDRSVFLELAISAMDELVKMAQMDDPLWVPALPGSPSKEVLNFEEYLHSFLPCIGMKPAGYVSEASRESGLVIIDNSLALVETLMDERRWSDMFSCMIAKATVLEEVSTGIAGSRNGALLLMKAELQVLSPLVPIREVTFLRFCKQLAEGAWAVVDVSIDGLVRDHNSGTAPTGGNVKCRRVPSGCVMQDTPNGYCKVTWVEHTEYDEASVHQLYRPLLRSGLAFGARRWLATLQRQCECLAILMSSATVTANDSTAISQEGKRSMLKLARRMTENFCAGVSASSAREWSKLDGATGSIGEDVRVMARKSVSEPGEPPGVVLSAATSVWVPVAPEKLFNFLRDEQLRAEWDILSNGGPMQEMTQIAKGQRDGNSVSLLRASAVSANQSSMLILQETCTDASGSIVVYAPVDIPAMQLVMNGGDSTYVALLPSGFAILPDGPRIGATGYETGGSLLTVAFQILVNNQPTAKLTVESVETVNNLISCTIKKIKTALQCDA |
